{
  "source": "patent US11925667B2",
  "about": "“Engineered therapeutic probiotic system and method” (priority 2018, dated 2024)",
  "system": "various colorectal, gastric and breast cancer cell lines",
  "assay": "Growth inhibition (MTT), summary over cancer cell lines",
  "assay_type": "cell-based",
  "conditions": "purified YebF-I1 fusion protein and sinigrin; all cancer cell lines tested",
  "excerpt": "Cell culture and toxicity assay. While HCT116 human colorectal carcinoma cells (ATCC, Manassas, USA), LoVo human colorectal adenocarcinoma cells (ATCC), AGS human gastric adenocarcinoma cells (ATCC), MCF7 human breast adenocarcinoma cells (ATCC), human esophageal smooth muscle primary cells (SMCs) (Cell Biologics, Chicago, USA) and CT26 mouse colorectal carcinoma cells (ATCC) are used according to the claimed invention, other illustrative cell lines may similarly be utilized. Cells are cleared of mycoplasma contamination prior to use using Mycoalert™ PLUS mycoplasma detection kit (Lonza). HCT116 cells are cultured in McCoy's 5A medium, LoVo and AGS cells in Ham's F12 medium, MCF7 cells in DMEM medium, CT26 cells in RPMI medium, and SMCs in the specific medium kit purchased from Cell Biologics. […]\nThe MTT readout is fitted to a dose-response curve to determine the GI50 value (Eq. 2). Absorbance (570 nm)=Bottom+(Top−Bottom)/(1+10^(([Inhibitor]−Log 10 GI50))) (Eq. 2) HlpA binding assay. […] The cancer 394 cells are washed twice with 1×PBS and measured for DAPI and RFP emission. The fluorescence emission is compared on the linear standard curve of stained cells against the average fluorescence emission to determine the binding ratio of E. coli to cancer cells.",
  "note": "Some of these results come from one statement about several compounds together.",
  "data": [
    {"substance": "YebF-I1 myrosinase: I1 myrosinase fused to a YebF-secretion tag, Seq. ID No 3", "values": [
      {"measurement": "complete inhibition (time)", "result": "≤ 24", "unit": "h"}
    ]}
  ]
}
